Values from PubChem BioAssay AID1259405 (NCATS, 2018).

Assay: 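Silenced genes that increase secreted GFP made by CHO cells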 (primary screen)
System: Chinese hamster CHO-K1 ovary cells with stable secreted eGFP expression
Reagent: single siRNA against mouse genes, 0.8 pmol siRNA per well (2 µl of 400 nM stock)
Timing: 3 days
Detection: 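Percent of the per-plate non-targeting control median for intracellular GFP per well by laser scanning cytometry and for cell viability by ATP luminescence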
Scale: GFP, % of control: higher = more GFP per well, higher productivity; viability (ATP), % of control: higher = more viable cells (more ATP)
Call rule: 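a knock-down is called active if GFP reaches 120% or more of non-targeting control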
The deposit covers about 50,000 reagents; this is a part drawn at random. Of all reagents, about 4,000 (8%) were called active. 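Mouse siRNA library applied to hamster cells; one well for each siRNA.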 The numbers tell different reagents against one gene apart.

| gene symbol | siRNA no. | GFP, % of control | viability (ATP), % of control | Call |
| --- | --- | --- | --- | --- |
| Mall | 1 | 60.4 | 67.3 | inactive |
| Mall | 2 | 128 | 139 | active |
| Mall | 3 | 96.6 | 99.6 | inactive |
| Myh14 | 1 | 50.3 | 53.8 | inactive |
| Myh14 | 2 | 123 | 89.5 | active |
| Spata1 | 1 | 84.4 | 83 | inactive |
| Spata1 | 2 | 41.9 | 24.7 | inactive |
| Spata1 | 3 | 111 | 90.3 | inactive |
| Or4c107 | 1 | 60.4 | 74.6 | inactive |
| Or4c107 | 2 | 61.1 | 74.7 | inactive |
| Or4c107 | 3 | 28.2 | 46 | inactive |
| Syt10 | 1 | 92.5 | 173 | inactive |
| Syt10 | 2 | 86.9 | 76.3 | inactive |
| Dlg1 | 1 | 106 | 82.5 | inactive |
| Dlg1 | 2 | 97.7 | 75.6 | inactive |
| Kera | 1 | 94.9 | 56.6 | inactive |
| Kera | 2 | 103 | 68.6 | inactive |
| Kera | 3 | 67.5 | 73.5 | inactive |
| Eed | 1 | 90.8 | 91.7 | inactive |
| Eed | 2 | 90.8 | 67.2 | inactive |
| Eed | 3 | 141 | 74.4 | active |
| Mrgprb1 | 1 | 71.3 | 69.5 | inactive |
| Mrgprb1 | 2 | 55.4 | 39.8 | inactive |
| Mrgprb1 | 3 | 108 | 135 | inactive |
| Ro60 | 1 | 51.8 | 70.9 | inactive |
| Ro60 | 2 | 93.8 | 108 | inactive |
| Ro60 | 3 | 86.3 | 74.4 | inactive |
| Kcnmb4 | 1 | 53.1 | 56.2 | inactive |
| Kcnmb4 | 2 | 74.9 | 74.2 | inactive |
| Kcnmb4 | 3 | 68.7 | 91.3 | inactive |
| Akr1d1 | 1 | 118 | 76.2 | inactive |
| Akr1d1 | 2 | 112 | 84.4 | inactive |
| Akr1d1 | 3 | 69 | 80.5 | inactive |
| Abca6 | 1 | 83.6 | 121 | inactive |
| Abca6 | 2 | 33.9 | 48.9 | inactive |
| Abca6 | 3 | 74.6 | 93.4 | inactive |
| Or51v8 | 1 | 87 | 91.2 | inactive |
| Or51v8 | 2 | 79.2 | 73.1 | inactive |
| Or51v8 | 3 | 44.8 | 67.6 | inactive |
| Gm5168 | 1 | 31.1 | 54.1 | inactive |
| Gm5168 | 2 | 93 | 56.9 | inactive |
| Gm5168 | 3 | 132 | 63.1 | active |
| Tmem38b | 1 | 94.5 | 83.4 | inactive |
| Tmem38b | 2 | 63.5 | 76.3 | inactive |
| Tmem38b | 3 | 88.9 | 84.3 | inactive |
| Thumpd1 | 1 | 75 | 73.4 | inactive |
| Thumpd1 | 2 | 81.2 | 88 | inactive |
| Thumpd1 | 3 | 61.1 | 51.3 | inactive |
| Ifng | 1 | 56.5 | 51 | inactive |
| Ifng | 2 | 77.5 | 57.4 | inactive |
| Ifng | 3 | 78.3 | 72.7 | inactive |
| Hopx | 1 | 72.7 | 65.7 | inactive |
| Hopx | 2 | 82 | 80.9 | inactive |
| Hopx | 3 | 28.1 | 27.6 | inactive |
| Ptk6 | 1 | 50.3 | 57.5 | inactive |
| Rrm2b | 1 | 58.9 | 56.6 | inactive |
| Rrm2b | 2 | 50 | 41.1 | inactive |
| Msrb3 | 1 | 104 | 47.8 | inactive |
| Msrb3 | 2 | 70.5 | 72.3 | inactive |
| Msrb3 | 3 | 52.6 | 46 | inactive |
| Plekhg3 | 1 | 97.9 | 81.5 | inactive |
| Plekhg3 | 2 | 91.2 | 102 | inactive |
| Plekhg3 | 3 | 165 | 160 | active |
| Lmod1 | 1 | 79.3 | 61.8 | inactive |
| Lmod1 | 2 | 71.5 | 73.6 | inactive |
| Lmod1 | 3 | 39 | 32.3 | inactive |
| Mipep | 1 | 75 | 80 | inactive |
| Mipep | 2 | 71.4 | 80.4 | inactive |
| Mipep | 3 | 85.7 | 74.8 | inactive |
| Or4k1 | 1 | 99 | 67.1 | inactive |
| Or4k1 | 2 | 117 | 59.8 | inactive |
| Or4k1 | 3 | 95.7 | 6.87 | inactive |
| Itgal | 1 | 115 | 96.7 | inactive |
| Itgal | 2 | 83.3 | 87.9 | inactive |
| Ccdc42 | 1 | 114 | 120 | inactive |
| Ccdc42 | 2 | 91.2 | 111 | inactive |
| Ccdc42 | 3 | 75.4 | 81.5 | inactive |
| Zfp420 | 1 | 63.1 | 64.6 | inactive |
| Zfp420 | 2 | 30.6 | 42.4 | inactive |
| Psmd13 | 1 | 109 | 70.2 | inactive |
| Psmd13 | 2 | 109 | 64 | inactive |
| Psmd13 | 3 | 63.9 | 56.9 | inactive |
| Fam246a | 1 | 74.1 | 75.6 | inactive |
| Fam246a | 2 | 92.6 | 94 | inactive |
| Fam246a | 3 | 74.8 | 72.4 | inactive |

As entered above:
Value for Zfp420 #2 in “GFP, % of control”: 30.6
For “viability (ATP), % of control”, Spata1 #3 has 90.3
For “GFP, % of control”, Thumpd1 #1 shows 75
Under “Call”, Kera #2 has inactive
For “viability (ATP), % of control”, Or4c107 #2 reads 74.7
Gm5168 #3, viability (ATP), % of control = 63.1
